Laboratory results published in PubChem BioAssay AID2685 (National Center for Advancing Translational Sciences (NCATS), 2010).
Some of the results follow. These are further read-outs of the screen, such as a control signal, another cell line or another target. No call is given for them. The list favours compounds with an active or inconclusive main result. The note in brackets gives the kind of curve behind each potency; many fits are weak.

Assay: qHTS Assay for Lipid Storage Modulators in Drosophila S3 Cells;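 on cell number change: cells counted by Cell Tracker Red CMTPX staining in the red channel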
Settings: BODIPY lipid droplet fluorescence, 18-24 h; for cell number change: measured here: cell count max response, cells fed with added oleic acid
Method in brief: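 Drosophila S3 cells got compounds at several concentrations plus oleic acid (400 uM solution). Laser-scanning cytometry with 488 nm excitation read lipid droplets at 500-530 nm and cells at 575-640 nm. Percent activity was relative to 20 uM Triacsin C.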

[1] = measured here: lipid fluorescence (Fed channel) AC50, cells fed with added oleic acid
[2] = measured here: cell number channel AC50, cells fed with added oleic acid

CSCC[C@@H](C(=O)Nc1ccc2c(c1)OCCO2)N1Cc2ccccc2C1=O
cell number change: 2.41%

C=CCn1c(=O)c(C(=O)Nc2ccc(C)cc2)c(O)c2ccccc21
cell number change: 17.3%
AC50 [1]: 9.2 µM [rising, partial curve, poor fit]

Cc1nn(C)c(C(=O)NNC(=S)Nc2ccc(Cl)cc2)c1[N+](=O)[O-]
cell number change: -19.4%

COc1ccc(OC)c(NC(=O)CN(C)CC(=O)Nc2ccccc2Br)c1
AC50 [1]: 23.1 µM [rising, single point]

CCc1ccc(NC(=O)COC(=O)c2nc3nc(C)cc(C)n3n2)cc1
cell number change: 19.8%
AC50 [2]: 0.0651 µM [rising, full curve, poor fit]
AC50 [1]: 0.058 µM [rising, full curve, poor fit]

Cc1csc(NC(=O)c2ccc(-c3ccc(Cl)cc3Cl)o2)n1
cell number change: -48.1%
AC50 [2]: 18.4 µM [falling, single point]
AC50 [1]: 32.6 µM [falling, single point]

C#CCOCCOCCOCCNc1nc(N2CCN(C(=O)CCCCCCCCCCNC(=O)[C@H](CO)n3cc(CCCSC)nn3)CC2)nc(N2CCN(C(=O)CCCCCCCCCCNC(=O)[C@H](CCCCN)n3cc(C[C@@H](C)CC)nn3)CC2)n1
cell number change: -82.3%
AC50 [2]: 10.3 µM [falling, partial curve]
AC50 [1]: 11.6 µM [falling, partial curve]

COc1ccc(C(=O)NCc2nnc(SCC(=O)NC3CCCCC3)o2)cc1
cell number change: -15%
AC50 [1]: 29.1 µM [falling, single point]

CCn1ccnc1CNC(=O)CC1C(=O)NCCN1Cc1ccccc1F (configuration not stated)
cell number change: -15.1%
AC50 [1]: 0.116 µM [falling, full curve, poor fit]

O=C(CSC1=Nc2ccccc2C2=NC(c3ccccc3)C(=O)N12)NCC1CCCO1 (configuration not stated)
cell number change: -16.4%
AC50 [1]: 4.11 µM [rising, single point]

CS(=O)(=O)N1CCC(C(=O)Nc2cc(Cl)cc(Cl)c2)CC1
cell number change: 21.7%
AC50 [2]: 6.51 µM [rising, single point]

CCn1c(SCC(=O)N=Nc2c(O)[nH]c3ccccc23)nc2ccccc21
cell number change: 10.8%

COc1ccc(S(=O)(=O)Oc2ccc3c(c2)O/C(=C\c2cccnc2)C3=O)cc1
cell number change: 3.59%
AC50 [1]: 5.8 µM [rising, full curve]

COc1cccc(N2CCN(c3c(C#N)c(C(F)(F)F)nn3C)CC2)c1
cell number change: 22%
AC50 [1]: 13 µM [falling, partial curve, poor fit]

CC1(C)C/C(=N\NC(=S)Nc2ccccc2F)c2cc(O)ccc2O1
cell number change: -43.9%
AC50 [2]: 29.1 µM [falling, single point]

C/C=C/COC(=O)c1[nH]c2c(c1C)C(=O)CC(c1ccc(N(C)C)cc1)C2 (configuration not stated)
AC50 [2]: 1.3 µM [rising, partial curve]
AC50 [1]: 1.64 µM [rising, partial curve]

Cc1cc(C(=O)NC2CCCc3ccccc32)no1 (configuration not stated)
cell number change: 7.23%
AC50 [1]: 0.366 µM [rising, full curve, poor fit]

CCC(=O)Nc1ccc(N2CCCCC2)c(C(=O)Nc2ccccc2C)c1
cell number change: 33.3%
AC50 [2]: 2.06 µM [rising, full curve]
AC50 [1]: 3.66 µM [rising, partial curve]

COc1ccc(C(=O)C2CCN(C(=O)Nc3ccc(C)cc3)CC2)cc1
cell number change: 13.9%
AC50 [1]: 0.206 µM [rising, single point]

COc1cc2ccccc2cc1C(=O)N1CCOCC1
cell number change: -7.68%
AC50 [1]: 0.00461 µM [rising, full curve, poor fit]

COn1c(SCc2ccccc2)nc2ccccc2c1=O
cell number change: 30.6%
AC50 [2]: 29.1 µM [rising, single point]
AC50 [1]: 32.6 µM [falling, single point]

COc1cc(OC)cc(C(=O)N[C@H](C(=O)Nc2nc(-c3cc(OC)ccc3OC)cs2)C(C)C)c1
cell number change: 8.28%

O=C(CCc1nc2ccccc2c(=O)[nH]1)OCCOc1ccc(Cl)cc1
AC50 [2]: 6.51 µM [rising, single point]

O=C(COC(=O)CN1C(=O)c2ccccc2C1=O)Nc1ccc(S(=O)(=O)N2CCCC2)cc1
cell number change: 20.7%
AC50 [1]: 2.31 µM [falling, partial curve]

CCCCNc1ccc2c3c(cccc13)C(=O)N(CCCC)C2=O
cell number change: -101%
AC50 [2]: 16.4 µM [falling, partial curve]
AC50 [1]: 7.31 µM [falling, partial curve]

O=C(COC(=O)CNC(=O)c1cccc(OC(F)F)c1)NNC(=O)c1ccccc1
cell number change: -9.77%
AC50 [1]: 0.184 µM [rising, full curve, poor fit]

O=C(O)c1ccc(COc2c(F)c(F)cc(F)c2F)cc1
AC50 [2]: 0.651 µM [falling, single point]

O=C(O)COc1ccc(Cl)cc1CO
cell number change: 8.53%

COc1ccccc1/C=C/C(=O)OC(C)CN1CCCCC1 (configuration not stated)
cell number change: 3.24%
AC50 [1]: 29.1 µM [falling, single point]

Cc1cc(-n2cnc(-c3cn(C)nc3C)n2)no1
cell number change: 22%
AC50 [1]: 1.46 µM [rising, partial curve]

CCc1ccc(Nc2nnc(SCC(=O)N(C)C3CCS(=O)(=O)C3)s2)cc1 (configuration not stated)
cell number change: -18.2%
AC50 [1]: 14.6 µM [falling, partial curve]

COc1ccc(NC(=O)CSCC(=O)N(C)Cc2ccc3c(c2)OCCO3)cc1
cell number change: -19.9%
AC50 [1]: 0.116 µM [rising, full curve, poor fit]

COC(=O)c1cc(NS(=O)(=O)c2ccc(C)c3ccccc23)ccc1N1CCOCC1
AC50 [2]: 0.58 µM [rising, single point]

CC1CCc2cc(F)cc3c(O)c(C(=O)NCC4CCCO4)c(=O)n1c23 (configuration not stated)
cell number change: -8.6%
AC50 [2]: 0.82 µM [rising, full curve, poor fit]
AC50 [1]: 16.4 µM [rising, partial curve]

CC(=O)Nc1ccccc1NC(=O)C(F)(F)F
AC50 [1]: 5.8 µM [falling, full curve, poor fit]

CCOC(=O)CSc1nc2sc3c(c2c(=O)n1-c1ccc(OC)cc1)CCN(C)C3
cell number change: 36.6%
AC50 [2]: 6.51 µM [rising, full curve, poor fit]
AC50 [1]: 6.51 µM [rising, partial curve, poor fit]

COc1ccc(Cn2c(=O)[nH]c3cc(C(=O)N4CCN(c5ccccc5)CC4)ccc3c2=O)cc1
cell number change: 23.5%

COCc1cc(C)nc(OCC(=O)N/N=C/c2ccc(O)cc2)c1C#N
cell number change: -0.0159%
AC50 [1]: 9.2 µM [rising, partial curve]

CCOC(=O)c1[nH]cnc1C(=O)Nc1ccccc1
cell number change: 14.4%
AC50 [1]: 0.103 µM [falling, full curve, poor fit]

CCc1ncc(CN2CCCCC2C(=O)Nc2ccc(Oc3ccccc3)nc2)cn1 (configuration not stated)
cell number change: -47.4%
AC50 [2]: 29.1 µM [falling, partial curve, poor fit]

Cn1nnnc1SCC(=O)Nc1cccc(S(=O)(=O)N2CCCC2)c1
cell number change: 0.947%
AC50 [2]: 0.116 µM [falling, full curve, poor fit]
AC50 [1]: 0.13 µM [falling, full curve, poor fit]

CN(C)CCn1c2c(c(SCC(=O)Nc3nccs3)nc1=O)CCCC2
cell number change: 1.82%

CCc1ccc(/C=N/NC(=O)c2cc(-c3ccncc3)nc3ccccc23)s1
cell number change: 36.7%
AC50 [2]: 2.31 µM [rising, full curve]
AC50 [1]: 3.26 µM [rising, full curve]

CCCS(=O)(=O)N1CCCC(C(=O)NCCCN(C)Cc2ccccc2)C1 (configuration not stated)
cell number change: -11.6%
AC50 [1]: 7.31 µM [falling, partial curve, poor fit]

Cc1cc(Cl)nc(Cl)c1C(=O)NCCc1ccccc1
cell number change: -12.7%

CCN(CC)S(=O)(=O)c1ccc(OC)c(NC(=O)CCc2c(C)noc2C)c1
cell number change: -3.15%

S=C(NC1CCCC1)N1CCN(c2ncccn2)CC1
cell number change: 66.7%
AC50 [2]: 29.1 µM [rising, single point]
AC50 [1]: 29.1 µM [rising, single point]

CCCN1CCC(=O)N([C@H](CSc2ccc(C)cc2)Cc2ccccc2)CC1
cell number change: -37.1%
AC50 [2]: 20.6 µM [falling, partial curve, poor fit]
AC50 [1]: 29.1 µM [falling, single point]

CCN(CC)S(=O)(=O)c1ccc(C(=O)Nn2cnnc2)cc1
cell number change: -8.7%
AC50 [1]: 0.00461 µM [falling, full curve, poor fit]

COCCN1C(=O)C(=O)/C(=C(/O)c2ccc(S(=O)(=O)N3CCOCC3)cc2)C1c1ccc(C(C)C)cc1 (configuration not stated)
cell number change: 2.2%
AC50 [1]: 3.26 µM [rising, full curve]

Cc1nn(C(=O)c2cccnc2)c(C)c1Sc1ccc(Br)cc1
cell number change: -27.9%
AC50 [1]: 29.1 µM [falling, single point]

CCOCCCn1c(=S)[nH]c2cc(C(=O)NCCOC)ccc2c1=O
cell number change: -18.8%

CCc1nnc(NC(=O)C2Cc3ccccc3CN2S(=O)(=O)CC)s1 (configuration not stated)
cell number change: 38.4%
AC50 [2]: 16.4 µM [rising, single point]

COc1ccc(N(C)C(=O)C2CCN(S(=O)(=O)c3cccc4nsnc34)CC2)cc1
cell number change: 17.2%
AC50 [1]: 29.1 µM [rising, single point]

COc1ccc(C)cc1NC(=O)CN1CCN(S(=O)(=O)c2ccc(Cl)cc2)CC1
cell number change: 265%
AC50 [2]: 16.4 µM [rising, partial curve]
AC50 [1]: 20.6 µM [rising, partial curve]

COc1cccc(NS(=O)(=O)c2ccc3c(c2)CCN3C(C)=O)c1
AC50 [1]: 0.58 µM [falling, single point]

CCOc1ccccc1NC(=O)NC1(C(=O)NCc2cccnc2)CCCCC1
cell number change: -11.3%

COc1ccc(-c2[nH]c(-c3ccc(F)cc3)nc2SCC(=O)NCc2ccco2)cc1OC
cell number change: -8.56%
AC50 [1]: 0.146 µM [falling, full curve, poor fit]
